Results reported in patent publication US4680283A, “Analogs of substance P and eledoisin” (Merck & Co., Inc., priority 1986, dated 1987).
At least one compound was matched to its structure with a doubt left.

Sequences of proteins named here, by UniProt entry; tags and fusion partners are left off.
UniProt P14600, whole entry: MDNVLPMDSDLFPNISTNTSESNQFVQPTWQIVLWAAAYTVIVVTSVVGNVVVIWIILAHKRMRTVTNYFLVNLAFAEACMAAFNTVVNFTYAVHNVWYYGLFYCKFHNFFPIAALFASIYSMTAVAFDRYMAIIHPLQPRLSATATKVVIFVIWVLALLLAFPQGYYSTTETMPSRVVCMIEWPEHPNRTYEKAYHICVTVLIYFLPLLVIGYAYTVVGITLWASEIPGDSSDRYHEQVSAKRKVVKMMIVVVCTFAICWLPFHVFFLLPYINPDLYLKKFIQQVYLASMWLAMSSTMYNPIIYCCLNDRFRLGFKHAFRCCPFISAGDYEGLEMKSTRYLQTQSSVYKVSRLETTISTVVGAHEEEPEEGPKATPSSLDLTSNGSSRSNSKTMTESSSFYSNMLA

Assays:
[1] = biological target: T1, 125I-BH-eledoisin binding sites in rat brain cortex membranes (Rattus norvegicus, UniProt P16177); experiment: eledoisin binding assay (competition for 125I-BH-eledoisin binding sites); details: peptides dissolved in DMSO
T1 construct: from tissue; host or cells: rat brain cortex membranes
T1 sequence (P16177 1-452): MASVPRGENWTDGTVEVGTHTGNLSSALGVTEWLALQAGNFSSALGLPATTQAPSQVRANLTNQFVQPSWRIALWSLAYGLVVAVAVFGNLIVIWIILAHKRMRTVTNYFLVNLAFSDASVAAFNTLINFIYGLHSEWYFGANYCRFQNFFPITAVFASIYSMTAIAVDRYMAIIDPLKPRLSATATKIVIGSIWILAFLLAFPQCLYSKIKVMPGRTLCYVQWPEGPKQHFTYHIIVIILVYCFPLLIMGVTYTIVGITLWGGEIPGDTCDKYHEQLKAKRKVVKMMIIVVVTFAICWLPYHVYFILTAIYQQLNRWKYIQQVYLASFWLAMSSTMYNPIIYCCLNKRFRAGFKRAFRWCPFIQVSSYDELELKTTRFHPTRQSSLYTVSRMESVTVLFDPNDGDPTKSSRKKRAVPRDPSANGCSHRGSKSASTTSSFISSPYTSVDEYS
Procedure: (§1) Representative compounds of this invention were tested in the substance P (SP) and eledoisin binding assays. The peptides were dissolved in DMSO and tested for their abilities to compete for ^125 I-BH-SP and ^125 I-BH-eledoison binding sites in rat brain cortex membranes (Cascieri and Liang, J. Biol. Chem., 258, 5158 (1983); Life Sciences, 35, 179 (1984)).
(§2) The following table summarizes the IC50 data obtained in both assay systems as well as showing the IC50 ratio for each peptide in the SP and eledoisin binding assays.

[2] = biological target: T2, 125I-BH-SP binding sites in rat brain cortex membranes (Rattus norvegicus, UniProt P14600); experiment: substance P (SP) binding assay (competition for 125I-BH-SP binding sites); details: peptides dissolved in DMSO
T2 construct: from tissue; host or cells: rat brain cortex membranes
Procedure: as §1, §2

SMILES	IC50 [1] [µM]	IC50 [2] [µM]
CC[C@H](C)[C@H](NC(=O)[C@H](Cc1ccccc1)NC(=O)[C@@H]1CCC(=O)N1)C(=O)N[C@@H]1CCN([C@@H](CC(C)C)C(=O)N[C@@H](CCSC)C(N)=O)C1=O [L-653,547]	0.15	140
CSCC[C@H](NC(=O)[C@H](CC(C)C)N1CC[C@@H](NC(=O)[C@@H](NC(=O)[C@H](Cc2ccccc2)NC(=O)[C@H](Cc2ccccc2)NC(C)=O)C(C)C)C1=O)C(N)=O [L-653,561]	0.045	110
CC[C@H](C)[C@H](NC(=O)[C@H](Cc1ccccc1)NC(=O)[C@H](C)NC(C)=O)C(=O)N[C@@H]1CCN([C@@H](CC(C)C)C(=O)N[C@@H](CCSC)C(N)=O)C1=O [L-653,562]	0.18	62
CC[C@H](C)[C@H](NC(=O)[C@H](Cc1ccccc1)NC(C)=O)C(=O)N[C@@H]1CCN([C@@H](CC(C)C)C(=O)N[C@@H](CCSC)C(N)=O)C1=O [L-653,563]	0.15	84
CSCC[C@H](NC(=O)[C@H](CC(C)C)N1CC[C@@H](NC(=O)[C@@H](NC(=O)[C@H](Cc2ccccc2)NC(=O)[C@@H]2CCC(=O)N2)C(C)C)C1=O)C(N)=O [L-653,564]	0.072	120
